Experimental data: the supplement of paper PMC12819154, “High-throughput peptide-centric local stability assay extends protein–ligand identification to membrane proteins, tissues and bacteria” (Nature Structural & Molecular Biology, 2025)
The other results are listed elsewhere or left out. Most values lie at the level of the controls, where differences are scatter.

Chains of the proteins cited; added tags and fusions are not shown. Lines headed by an entry give the natural chain unless they say otherwise; changes in a name come on top.
UniProt Q9ERG0: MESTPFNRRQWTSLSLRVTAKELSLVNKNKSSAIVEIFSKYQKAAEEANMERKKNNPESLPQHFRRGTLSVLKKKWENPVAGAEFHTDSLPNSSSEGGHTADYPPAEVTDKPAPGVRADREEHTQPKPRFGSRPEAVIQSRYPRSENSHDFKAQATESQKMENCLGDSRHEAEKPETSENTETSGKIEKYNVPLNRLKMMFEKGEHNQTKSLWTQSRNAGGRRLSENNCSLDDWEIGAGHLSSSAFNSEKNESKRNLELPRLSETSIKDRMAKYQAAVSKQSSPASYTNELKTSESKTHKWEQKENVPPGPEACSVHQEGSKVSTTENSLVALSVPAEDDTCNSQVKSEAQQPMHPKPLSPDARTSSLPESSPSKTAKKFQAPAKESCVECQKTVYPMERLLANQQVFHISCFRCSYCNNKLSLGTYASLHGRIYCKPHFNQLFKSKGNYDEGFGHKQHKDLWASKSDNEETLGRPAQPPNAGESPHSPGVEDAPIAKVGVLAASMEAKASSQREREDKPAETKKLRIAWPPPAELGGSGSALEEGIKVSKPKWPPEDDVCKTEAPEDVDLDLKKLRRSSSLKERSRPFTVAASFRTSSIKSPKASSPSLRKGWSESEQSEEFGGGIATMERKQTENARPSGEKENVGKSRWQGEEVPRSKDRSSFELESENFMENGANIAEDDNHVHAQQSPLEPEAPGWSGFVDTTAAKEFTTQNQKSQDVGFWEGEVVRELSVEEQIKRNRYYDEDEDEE
UniProt Q9EQN3: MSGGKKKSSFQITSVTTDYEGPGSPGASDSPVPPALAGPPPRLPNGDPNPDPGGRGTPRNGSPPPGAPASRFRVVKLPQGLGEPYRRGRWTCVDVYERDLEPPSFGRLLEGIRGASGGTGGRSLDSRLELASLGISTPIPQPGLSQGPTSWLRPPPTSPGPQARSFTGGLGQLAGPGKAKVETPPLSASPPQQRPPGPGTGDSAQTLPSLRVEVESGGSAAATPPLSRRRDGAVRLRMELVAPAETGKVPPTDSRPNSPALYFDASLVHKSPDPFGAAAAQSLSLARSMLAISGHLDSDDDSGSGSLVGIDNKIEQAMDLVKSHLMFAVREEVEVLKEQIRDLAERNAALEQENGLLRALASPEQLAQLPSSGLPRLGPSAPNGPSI
UniProt Q9QY76, whole entry: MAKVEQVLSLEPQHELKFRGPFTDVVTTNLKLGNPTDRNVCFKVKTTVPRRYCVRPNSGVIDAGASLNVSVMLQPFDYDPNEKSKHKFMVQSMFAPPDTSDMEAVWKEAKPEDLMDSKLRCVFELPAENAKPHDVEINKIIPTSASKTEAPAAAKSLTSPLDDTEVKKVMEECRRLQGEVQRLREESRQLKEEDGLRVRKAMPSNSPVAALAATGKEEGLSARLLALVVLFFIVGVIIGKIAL
UniProt Q9DD20: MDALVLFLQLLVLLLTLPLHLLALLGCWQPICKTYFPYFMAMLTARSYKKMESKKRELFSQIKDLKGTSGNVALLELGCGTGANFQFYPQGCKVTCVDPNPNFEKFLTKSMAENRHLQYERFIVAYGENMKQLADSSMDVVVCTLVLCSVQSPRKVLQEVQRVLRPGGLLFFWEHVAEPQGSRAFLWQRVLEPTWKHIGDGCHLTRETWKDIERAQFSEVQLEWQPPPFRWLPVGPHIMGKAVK
UniProt Q9DCP2, whole entry: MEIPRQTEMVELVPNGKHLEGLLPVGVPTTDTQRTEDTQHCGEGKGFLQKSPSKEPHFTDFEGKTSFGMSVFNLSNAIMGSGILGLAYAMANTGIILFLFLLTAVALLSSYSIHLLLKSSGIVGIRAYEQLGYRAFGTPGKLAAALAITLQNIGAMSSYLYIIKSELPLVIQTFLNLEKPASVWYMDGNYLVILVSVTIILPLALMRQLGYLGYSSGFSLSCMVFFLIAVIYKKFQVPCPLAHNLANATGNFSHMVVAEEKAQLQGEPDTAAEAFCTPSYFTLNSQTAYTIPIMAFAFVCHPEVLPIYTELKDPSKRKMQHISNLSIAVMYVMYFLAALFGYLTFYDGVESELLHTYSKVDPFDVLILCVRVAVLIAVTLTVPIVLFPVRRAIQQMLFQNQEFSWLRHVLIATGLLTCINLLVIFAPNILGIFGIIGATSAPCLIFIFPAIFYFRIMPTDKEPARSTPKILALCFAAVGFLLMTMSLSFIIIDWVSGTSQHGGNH
UniProt Q9DCF9: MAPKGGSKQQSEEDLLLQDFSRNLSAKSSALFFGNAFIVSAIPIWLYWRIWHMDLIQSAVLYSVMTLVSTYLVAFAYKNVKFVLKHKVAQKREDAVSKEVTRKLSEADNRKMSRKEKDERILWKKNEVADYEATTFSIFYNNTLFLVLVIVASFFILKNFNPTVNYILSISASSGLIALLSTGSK
UniProt Q9JMH9: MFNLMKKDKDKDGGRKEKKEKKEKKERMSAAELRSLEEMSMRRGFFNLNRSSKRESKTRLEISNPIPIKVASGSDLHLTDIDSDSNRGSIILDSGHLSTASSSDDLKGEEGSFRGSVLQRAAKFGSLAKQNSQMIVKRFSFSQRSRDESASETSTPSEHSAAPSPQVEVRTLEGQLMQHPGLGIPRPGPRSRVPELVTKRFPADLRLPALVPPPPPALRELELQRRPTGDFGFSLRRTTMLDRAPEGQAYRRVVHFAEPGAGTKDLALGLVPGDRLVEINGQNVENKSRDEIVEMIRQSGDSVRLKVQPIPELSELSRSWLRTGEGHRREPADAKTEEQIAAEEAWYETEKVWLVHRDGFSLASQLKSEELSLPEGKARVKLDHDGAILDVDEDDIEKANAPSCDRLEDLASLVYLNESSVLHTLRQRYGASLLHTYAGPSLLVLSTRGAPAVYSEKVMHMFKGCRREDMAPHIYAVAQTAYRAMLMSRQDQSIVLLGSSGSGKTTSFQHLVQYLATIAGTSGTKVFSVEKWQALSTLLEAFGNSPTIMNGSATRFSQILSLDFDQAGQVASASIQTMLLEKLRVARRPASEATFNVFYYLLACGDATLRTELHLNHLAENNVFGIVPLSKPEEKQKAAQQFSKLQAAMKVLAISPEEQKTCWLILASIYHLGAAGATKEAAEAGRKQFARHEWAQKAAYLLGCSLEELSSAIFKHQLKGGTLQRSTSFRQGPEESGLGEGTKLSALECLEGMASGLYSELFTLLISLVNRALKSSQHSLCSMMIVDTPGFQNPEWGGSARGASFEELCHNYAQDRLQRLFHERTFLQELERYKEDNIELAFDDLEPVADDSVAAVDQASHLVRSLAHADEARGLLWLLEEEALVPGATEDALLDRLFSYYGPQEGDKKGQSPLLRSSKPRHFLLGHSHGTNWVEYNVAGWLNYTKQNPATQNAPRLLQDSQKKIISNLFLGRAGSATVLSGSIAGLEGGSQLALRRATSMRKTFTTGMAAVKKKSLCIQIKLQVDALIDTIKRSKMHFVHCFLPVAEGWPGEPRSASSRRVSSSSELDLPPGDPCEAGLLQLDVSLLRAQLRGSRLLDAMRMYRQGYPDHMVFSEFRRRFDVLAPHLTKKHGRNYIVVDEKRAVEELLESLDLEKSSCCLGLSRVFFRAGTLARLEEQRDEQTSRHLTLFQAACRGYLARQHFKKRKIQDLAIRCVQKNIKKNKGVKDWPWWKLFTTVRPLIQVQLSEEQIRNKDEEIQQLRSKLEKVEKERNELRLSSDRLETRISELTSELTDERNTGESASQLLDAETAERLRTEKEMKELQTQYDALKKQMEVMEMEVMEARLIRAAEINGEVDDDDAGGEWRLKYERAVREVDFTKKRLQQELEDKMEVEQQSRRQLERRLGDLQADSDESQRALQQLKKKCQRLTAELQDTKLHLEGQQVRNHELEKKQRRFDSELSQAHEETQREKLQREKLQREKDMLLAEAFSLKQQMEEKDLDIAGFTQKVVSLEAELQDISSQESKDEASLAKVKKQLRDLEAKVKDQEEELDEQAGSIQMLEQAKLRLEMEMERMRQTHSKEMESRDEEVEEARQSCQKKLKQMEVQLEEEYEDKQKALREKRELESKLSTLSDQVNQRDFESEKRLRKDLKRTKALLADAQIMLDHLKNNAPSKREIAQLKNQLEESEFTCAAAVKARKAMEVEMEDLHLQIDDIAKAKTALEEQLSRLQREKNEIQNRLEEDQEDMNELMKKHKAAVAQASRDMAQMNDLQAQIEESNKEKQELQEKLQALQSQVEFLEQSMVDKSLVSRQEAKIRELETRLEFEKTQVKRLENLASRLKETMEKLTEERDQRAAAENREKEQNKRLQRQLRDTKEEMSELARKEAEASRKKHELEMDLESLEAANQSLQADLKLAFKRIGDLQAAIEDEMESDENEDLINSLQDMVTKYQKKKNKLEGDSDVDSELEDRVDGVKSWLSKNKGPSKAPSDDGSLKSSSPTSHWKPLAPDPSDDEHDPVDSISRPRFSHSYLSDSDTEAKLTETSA
UniProt Q9EQS9: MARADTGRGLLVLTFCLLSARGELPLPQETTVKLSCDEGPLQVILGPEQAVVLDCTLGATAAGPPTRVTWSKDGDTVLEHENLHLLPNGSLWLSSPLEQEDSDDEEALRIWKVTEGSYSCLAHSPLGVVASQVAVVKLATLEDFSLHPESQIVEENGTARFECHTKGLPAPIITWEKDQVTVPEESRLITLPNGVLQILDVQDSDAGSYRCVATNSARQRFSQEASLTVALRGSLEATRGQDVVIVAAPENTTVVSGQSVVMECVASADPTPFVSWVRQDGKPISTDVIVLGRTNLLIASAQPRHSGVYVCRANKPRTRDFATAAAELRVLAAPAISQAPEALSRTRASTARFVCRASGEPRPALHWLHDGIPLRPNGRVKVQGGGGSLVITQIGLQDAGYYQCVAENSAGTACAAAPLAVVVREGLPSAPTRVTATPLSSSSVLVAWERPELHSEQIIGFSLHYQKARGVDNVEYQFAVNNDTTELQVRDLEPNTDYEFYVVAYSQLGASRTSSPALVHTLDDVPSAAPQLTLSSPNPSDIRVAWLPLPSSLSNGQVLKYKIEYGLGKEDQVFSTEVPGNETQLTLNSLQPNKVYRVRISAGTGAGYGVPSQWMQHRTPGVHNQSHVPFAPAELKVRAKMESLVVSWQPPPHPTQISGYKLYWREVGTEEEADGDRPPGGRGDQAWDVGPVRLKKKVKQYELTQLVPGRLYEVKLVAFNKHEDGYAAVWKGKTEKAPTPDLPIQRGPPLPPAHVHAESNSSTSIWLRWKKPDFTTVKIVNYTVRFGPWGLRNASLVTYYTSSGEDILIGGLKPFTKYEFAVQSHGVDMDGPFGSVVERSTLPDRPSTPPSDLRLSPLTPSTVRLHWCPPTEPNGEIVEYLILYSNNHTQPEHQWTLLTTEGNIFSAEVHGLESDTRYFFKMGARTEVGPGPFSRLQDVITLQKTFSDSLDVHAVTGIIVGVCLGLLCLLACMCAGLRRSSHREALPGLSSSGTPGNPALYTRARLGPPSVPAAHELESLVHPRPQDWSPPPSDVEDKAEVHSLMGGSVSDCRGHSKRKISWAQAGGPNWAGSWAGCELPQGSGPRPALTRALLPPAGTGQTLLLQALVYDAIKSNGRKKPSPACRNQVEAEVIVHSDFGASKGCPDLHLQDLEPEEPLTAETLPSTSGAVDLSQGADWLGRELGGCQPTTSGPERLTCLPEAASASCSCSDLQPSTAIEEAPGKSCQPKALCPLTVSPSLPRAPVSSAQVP
UniProt Q9DCI9, whole entry: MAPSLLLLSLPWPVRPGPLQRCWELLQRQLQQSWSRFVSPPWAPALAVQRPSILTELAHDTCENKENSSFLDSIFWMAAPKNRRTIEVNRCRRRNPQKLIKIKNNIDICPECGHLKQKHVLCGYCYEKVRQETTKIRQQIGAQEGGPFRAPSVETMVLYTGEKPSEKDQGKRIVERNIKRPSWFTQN
UniProt Q9JLJ2: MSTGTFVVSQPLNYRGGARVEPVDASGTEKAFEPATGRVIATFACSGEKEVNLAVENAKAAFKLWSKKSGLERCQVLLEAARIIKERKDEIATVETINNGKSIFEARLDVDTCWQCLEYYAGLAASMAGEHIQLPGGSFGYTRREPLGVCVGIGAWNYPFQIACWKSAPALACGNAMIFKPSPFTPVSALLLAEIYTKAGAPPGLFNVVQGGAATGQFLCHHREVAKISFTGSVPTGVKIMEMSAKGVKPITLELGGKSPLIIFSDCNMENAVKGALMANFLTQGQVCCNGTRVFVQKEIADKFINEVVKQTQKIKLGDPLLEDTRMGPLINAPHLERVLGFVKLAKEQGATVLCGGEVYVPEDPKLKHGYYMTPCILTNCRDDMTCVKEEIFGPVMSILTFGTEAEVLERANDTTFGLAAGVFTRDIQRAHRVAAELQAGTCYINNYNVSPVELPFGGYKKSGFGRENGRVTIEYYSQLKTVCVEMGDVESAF
UniProt Q9JI59: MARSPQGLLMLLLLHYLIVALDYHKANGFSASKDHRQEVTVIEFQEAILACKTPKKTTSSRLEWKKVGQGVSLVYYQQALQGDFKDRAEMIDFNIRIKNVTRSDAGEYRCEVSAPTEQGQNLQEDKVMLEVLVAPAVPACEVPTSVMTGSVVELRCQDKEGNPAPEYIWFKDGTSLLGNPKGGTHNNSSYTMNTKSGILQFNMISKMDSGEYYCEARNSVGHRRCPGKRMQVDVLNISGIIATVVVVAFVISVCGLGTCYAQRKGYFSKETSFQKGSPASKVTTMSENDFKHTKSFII

Compound: CN[C@@H]1C[C@H]2O[C@@](C)([C@@H]1OC)n1c3ccccc3c3c4c(c5c6ccccc6n2c5c31)C(=O)NC4 [staurosporine]
Experiment: log2 fold change of pooled soluble protein (PISA), ligand vs vehicle (log2 ratio); higher = more thermally stabilized
Details: ligand concentration: 20 uM; assay format: PISA pool 52.9/55.5/58.6 C

| Target | log2 fold change of pooled soluble protein |
| --- | --- |
| UniProt Q9QXD1 | 0.000395 |
| UniProt Q9ERG0 | 0.0246 |
| UniProt Q9ESD7 | 0.0117 |
| UniProt Q9JIA7 | 0.167 |
| UniProt Q9EP72 | 0.0787 |
| UniProt Q9EQN3 | 0.0871 |
| UniProt Q9DCT8 | -0.326 |
| UniProt Q9EPK6 | 0.15 |
| UniProt Q9JLJ4 | -0.0228 |
| UniProt Q9ESZ8 | 0.0128 |
| UniProt Q9ERG2 | 0.0539 |
| UniProt Q9JHU4 | -0.103 |
| UniProt Q9QXX4 | 0.0413 |
| UniProt Q9DCE9 | -0.0946 |
| UniProt Q9QY76 | -0.036 |
| UniProt Q9DC50 | -0.0667 |
| UniProt Q9ES52 | -0.135 |
| UniProt Q9JLV5 | 0.0794 |
| UniProt Q9QXD6 | 0.0253 |

Looked up above:
Entry for UniProt Q9DC50 under log2 fold change of pooled soluble protein: -0.0667
Entry for UniProt Q9JLJ4 under log2 fold change of pooled soluble protein: -0.0228

Additional results follow:

| Target | log2 fold change of pooled soluble protein |
| --- | --- |
| UniProt Q9DCS2 | -0.143 |
| UniProt Q9EQH2 | 0.108 |
| UniProt Q9DD20 | -0.0701 |
| UniProt Q9DCP2 | 0.0373 |
| UniProt Q9QYF1 | 0.00421 |
| UniProt Q9DCD5 | -0.0757 |
| UniProt Q9DCF9 | 0.203 |
| Q9QUK9;Q9R0T7 | -0.0858 |
| UniProt Q9QWG7 | -0.101 |
| UniProt Q9JMH9 | 0.0839 |
| UniProt Q9EQS9 | 0.109 |
| UniProt Q9JHR7 | -0.0217 |
| UniProt Q9DCI9 | -0.0643 |
| UniProt Q9JLJ2 | 0.119 |
| UniProt Q9JI59 | -0.00292 |
| UniProt Q9DC51 | -0.00751 |
| UniProt Q9EP75 | 0.182 |
| UniProt Q9QXZ0 | -0.0556 |
